Results published in paper PMC9284139.
These are yes or no findings as the source states them, for the method shown. Binding seen in cells or lysates may run through a third protein. Some binding calls cover weakened binding; strength is not graded here. One block for each substance: values may come before it.

By UniProt entry, the sequences of proteins in these tests, tags left out. Residues count along the entry.
UniProt E9Q414, residues 28-4505: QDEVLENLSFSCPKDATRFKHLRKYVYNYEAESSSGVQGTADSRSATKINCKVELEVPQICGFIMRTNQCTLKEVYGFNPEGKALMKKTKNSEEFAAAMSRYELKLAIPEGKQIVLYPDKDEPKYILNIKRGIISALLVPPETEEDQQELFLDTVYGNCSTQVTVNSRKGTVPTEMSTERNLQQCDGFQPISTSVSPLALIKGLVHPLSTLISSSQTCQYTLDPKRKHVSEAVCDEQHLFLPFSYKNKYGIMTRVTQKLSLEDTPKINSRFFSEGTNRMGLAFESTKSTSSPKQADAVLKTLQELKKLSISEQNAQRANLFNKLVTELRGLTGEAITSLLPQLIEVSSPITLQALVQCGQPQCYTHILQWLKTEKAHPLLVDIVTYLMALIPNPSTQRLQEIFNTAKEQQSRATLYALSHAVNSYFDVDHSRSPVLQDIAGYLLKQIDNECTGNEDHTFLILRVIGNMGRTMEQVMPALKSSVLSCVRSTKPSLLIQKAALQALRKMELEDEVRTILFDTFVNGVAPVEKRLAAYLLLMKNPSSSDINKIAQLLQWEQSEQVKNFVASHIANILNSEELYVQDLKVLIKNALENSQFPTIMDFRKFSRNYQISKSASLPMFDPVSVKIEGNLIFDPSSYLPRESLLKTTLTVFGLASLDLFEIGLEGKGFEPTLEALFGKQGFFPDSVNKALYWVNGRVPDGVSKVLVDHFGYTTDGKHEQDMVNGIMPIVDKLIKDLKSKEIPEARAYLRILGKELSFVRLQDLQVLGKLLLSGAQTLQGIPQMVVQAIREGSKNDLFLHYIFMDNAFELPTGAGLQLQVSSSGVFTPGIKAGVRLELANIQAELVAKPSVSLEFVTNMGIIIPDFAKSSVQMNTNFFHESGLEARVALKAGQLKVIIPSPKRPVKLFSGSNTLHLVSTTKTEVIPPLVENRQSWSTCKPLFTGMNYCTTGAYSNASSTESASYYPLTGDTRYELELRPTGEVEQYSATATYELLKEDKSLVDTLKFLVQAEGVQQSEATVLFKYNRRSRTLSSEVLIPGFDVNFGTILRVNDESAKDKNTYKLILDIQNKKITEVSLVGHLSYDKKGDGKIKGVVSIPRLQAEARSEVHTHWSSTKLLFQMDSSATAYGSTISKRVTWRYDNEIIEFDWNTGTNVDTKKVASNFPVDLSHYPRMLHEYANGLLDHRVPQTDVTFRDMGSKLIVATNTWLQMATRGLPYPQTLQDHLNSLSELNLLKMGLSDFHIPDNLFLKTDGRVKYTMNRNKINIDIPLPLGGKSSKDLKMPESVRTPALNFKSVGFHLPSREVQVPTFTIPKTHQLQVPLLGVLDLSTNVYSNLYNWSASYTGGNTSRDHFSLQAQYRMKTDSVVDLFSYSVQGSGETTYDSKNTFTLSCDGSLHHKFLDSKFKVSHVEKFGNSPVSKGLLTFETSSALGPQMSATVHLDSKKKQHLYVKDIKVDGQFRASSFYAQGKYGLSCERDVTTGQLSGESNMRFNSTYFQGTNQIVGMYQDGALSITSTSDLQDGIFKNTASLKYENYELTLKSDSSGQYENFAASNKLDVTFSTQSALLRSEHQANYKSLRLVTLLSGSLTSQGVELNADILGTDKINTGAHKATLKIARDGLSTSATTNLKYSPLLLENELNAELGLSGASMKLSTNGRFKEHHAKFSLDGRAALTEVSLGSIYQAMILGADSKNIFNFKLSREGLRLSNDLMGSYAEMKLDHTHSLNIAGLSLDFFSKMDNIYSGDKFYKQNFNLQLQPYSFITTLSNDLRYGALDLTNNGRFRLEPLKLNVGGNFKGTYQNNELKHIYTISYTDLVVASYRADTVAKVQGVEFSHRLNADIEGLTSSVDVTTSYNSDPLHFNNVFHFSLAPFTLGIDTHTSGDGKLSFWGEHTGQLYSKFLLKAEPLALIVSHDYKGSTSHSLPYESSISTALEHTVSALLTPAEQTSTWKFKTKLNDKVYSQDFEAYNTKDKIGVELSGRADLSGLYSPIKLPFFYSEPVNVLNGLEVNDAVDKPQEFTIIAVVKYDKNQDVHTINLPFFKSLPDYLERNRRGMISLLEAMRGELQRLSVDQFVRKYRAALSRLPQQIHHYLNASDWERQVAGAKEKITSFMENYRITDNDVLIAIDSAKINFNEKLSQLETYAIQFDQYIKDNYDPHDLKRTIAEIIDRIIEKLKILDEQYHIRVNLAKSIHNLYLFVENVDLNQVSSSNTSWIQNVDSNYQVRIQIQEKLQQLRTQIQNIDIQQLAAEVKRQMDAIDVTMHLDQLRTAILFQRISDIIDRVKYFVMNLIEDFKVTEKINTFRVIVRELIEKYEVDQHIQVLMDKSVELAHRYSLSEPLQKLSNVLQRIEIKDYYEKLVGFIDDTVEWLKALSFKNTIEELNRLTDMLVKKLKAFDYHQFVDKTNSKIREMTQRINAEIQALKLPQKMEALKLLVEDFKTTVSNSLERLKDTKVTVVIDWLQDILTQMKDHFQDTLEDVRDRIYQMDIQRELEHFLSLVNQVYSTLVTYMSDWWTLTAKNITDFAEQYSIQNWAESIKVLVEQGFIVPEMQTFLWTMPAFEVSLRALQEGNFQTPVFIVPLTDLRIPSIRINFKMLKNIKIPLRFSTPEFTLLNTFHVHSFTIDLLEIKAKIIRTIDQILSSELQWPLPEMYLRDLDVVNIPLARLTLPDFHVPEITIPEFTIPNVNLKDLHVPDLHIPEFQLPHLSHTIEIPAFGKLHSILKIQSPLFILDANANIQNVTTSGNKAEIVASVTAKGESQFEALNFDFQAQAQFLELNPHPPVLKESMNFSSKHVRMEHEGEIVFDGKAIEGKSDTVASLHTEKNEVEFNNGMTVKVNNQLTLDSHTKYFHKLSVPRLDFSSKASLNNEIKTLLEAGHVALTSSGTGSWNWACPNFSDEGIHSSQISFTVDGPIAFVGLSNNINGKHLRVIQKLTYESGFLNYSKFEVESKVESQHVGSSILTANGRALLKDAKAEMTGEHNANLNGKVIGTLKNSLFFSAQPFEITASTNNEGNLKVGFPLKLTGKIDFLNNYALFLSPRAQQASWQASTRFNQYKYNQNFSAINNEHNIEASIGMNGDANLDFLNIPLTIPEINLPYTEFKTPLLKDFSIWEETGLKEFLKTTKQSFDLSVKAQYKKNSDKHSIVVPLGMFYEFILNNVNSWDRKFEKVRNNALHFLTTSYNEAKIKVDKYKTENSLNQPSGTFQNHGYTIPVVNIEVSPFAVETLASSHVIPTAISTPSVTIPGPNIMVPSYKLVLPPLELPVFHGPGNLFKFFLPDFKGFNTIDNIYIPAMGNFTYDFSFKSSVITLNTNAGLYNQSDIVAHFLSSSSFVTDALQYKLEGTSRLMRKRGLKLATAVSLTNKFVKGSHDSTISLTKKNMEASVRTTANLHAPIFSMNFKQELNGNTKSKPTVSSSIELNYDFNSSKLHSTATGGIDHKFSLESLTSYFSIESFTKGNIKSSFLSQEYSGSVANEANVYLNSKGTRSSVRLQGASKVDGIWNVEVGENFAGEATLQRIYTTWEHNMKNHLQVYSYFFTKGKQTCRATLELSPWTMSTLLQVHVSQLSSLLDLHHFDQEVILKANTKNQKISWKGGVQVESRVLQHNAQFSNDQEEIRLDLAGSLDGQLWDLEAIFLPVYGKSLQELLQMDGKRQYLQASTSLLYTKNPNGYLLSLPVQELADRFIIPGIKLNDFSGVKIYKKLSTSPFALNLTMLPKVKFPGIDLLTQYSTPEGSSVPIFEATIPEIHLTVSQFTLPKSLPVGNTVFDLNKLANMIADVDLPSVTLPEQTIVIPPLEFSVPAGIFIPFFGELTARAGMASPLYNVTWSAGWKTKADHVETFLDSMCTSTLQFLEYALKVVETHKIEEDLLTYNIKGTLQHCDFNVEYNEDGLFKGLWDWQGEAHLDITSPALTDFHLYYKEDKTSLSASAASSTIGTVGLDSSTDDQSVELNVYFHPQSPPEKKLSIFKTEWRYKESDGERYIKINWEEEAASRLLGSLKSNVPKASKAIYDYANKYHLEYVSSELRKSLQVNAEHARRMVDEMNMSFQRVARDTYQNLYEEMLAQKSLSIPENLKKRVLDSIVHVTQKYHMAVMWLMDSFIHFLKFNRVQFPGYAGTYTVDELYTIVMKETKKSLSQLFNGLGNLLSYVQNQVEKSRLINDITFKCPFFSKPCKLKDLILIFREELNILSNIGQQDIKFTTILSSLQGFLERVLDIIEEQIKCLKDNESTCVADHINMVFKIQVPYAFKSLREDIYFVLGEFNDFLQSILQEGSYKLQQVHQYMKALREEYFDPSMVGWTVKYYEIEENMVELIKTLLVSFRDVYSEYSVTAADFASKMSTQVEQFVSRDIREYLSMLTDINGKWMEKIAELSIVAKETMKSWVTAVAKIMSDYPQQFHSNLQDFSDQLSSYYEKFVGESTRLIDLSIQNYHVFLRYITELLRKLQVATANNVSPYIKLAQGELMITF
UniProt P23804: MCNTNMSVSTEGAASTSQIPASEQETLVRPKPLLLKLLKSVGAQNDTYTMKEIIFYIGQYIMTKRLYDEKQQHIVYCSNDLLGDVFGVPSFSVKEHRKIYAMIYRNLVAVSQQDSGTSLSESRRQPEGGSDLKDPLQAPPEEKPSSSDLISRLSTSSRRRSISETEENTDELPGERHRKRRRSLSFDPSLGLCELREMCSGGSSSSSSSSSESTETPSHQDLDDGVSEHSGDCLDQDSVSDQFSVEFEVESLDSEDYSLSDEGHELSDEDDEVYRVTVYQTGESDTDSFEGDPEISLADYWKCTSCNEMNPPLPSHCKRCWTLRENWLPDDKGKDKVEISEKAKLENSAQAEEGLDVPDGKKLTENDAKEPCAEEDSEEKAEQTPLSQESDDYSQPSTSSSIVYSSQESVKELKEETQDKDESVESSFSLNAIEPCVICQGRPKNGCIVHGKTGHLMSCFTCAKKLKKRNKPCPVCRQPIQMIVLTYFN
UniProt Q00987: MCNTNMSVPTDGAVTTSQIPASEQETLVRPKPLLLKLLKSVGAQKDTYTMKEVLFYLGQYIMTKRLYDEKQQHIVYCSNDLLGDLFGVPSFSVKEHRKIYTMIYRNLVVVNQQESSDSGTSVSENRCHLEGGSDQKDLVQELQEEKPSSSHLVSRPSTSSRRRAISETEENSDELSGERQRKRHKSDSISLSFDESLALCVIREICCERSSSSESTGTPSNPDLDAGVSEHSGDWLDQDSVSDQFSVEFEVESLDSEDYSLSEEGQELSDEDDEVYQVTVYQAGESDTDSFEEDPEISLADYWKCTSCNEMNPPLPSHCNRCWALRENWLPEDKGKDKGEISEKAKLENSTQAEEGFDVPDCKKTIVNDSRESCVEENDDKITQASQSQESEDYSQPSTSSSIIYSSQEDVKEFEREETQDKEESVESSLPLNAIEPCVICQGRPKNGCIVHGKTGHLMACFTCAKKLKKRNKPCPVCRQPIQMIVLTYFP

Legend:
ApoB-3419-4018 (human) = biological target: T1, ApoB-3419-4018 (human) (UniProt P04114); experiment: co-IP; HEK293 cells co-transfected with Myc-tagged MDM2 and FLAG-tagged truncated ApoB or its mutants; lysates on anti-FLAG agarose beads at 4 °C for 2 h; immunoblot of FLAG and Myc
T1 sequence: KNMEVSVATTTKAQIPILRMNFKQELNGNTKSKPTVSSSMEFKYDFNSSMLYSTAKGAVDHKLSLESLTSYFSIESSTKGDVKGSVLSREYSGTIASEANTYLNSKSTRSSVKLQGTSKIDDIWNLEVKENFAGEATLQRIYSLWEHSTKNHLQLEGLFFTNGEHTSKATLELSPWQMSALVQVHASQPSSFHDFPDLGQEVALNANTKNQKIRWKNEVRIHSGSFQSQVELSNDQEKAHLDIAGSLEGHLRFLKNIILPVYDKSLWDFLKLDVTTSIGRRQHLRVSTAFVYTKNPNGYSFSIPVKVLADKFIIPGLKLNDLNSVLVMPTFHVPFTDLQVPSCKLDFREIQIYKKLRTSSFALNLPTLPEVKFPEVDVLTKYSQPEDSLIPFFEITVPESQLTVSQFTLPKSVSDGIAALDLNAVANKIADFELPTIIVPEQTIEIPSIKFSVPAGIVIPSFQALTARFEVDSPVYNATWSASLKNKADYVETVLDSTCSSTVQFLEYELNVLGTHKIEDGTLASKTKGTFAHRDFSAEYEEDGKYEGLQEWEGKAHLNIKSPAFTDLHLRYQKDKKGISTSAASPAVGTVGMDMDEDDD

ApoB-1-624 (human) = biological target: T2, ApoB-1-624 (human) (UniProt P04114); experiment: as above
T2 sequence: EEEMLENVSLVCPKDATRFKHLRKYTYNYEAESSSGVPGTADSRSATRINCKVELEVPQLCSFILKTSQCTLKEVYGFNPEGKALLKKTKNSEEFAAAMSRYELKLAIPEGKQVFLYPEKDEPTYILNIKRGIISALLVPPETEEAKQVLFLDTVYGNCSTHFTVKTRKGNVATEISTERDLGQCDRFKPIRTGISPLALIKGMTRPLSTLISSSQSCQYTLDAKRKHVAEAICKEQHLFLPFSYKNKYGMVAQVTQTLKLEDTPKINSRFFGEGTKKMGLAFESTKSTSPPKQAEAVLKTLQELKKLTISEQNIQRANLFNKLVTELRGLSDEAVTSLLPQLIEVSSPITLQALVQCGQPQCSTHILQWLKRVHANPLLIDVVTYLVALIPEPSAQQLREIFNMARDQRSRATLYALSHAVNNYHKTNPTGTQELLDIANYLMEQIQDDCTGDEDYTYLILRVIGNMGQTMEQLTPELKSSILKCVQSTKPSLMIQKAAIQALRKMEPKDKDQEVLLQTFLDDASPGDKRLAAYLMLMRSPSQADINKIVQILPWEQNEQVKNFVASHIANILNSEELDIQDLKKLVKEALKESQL

[1] = biological target: Apolipoprotein B (ApoB), endogenous in HepG2 cells (human (endogenous in HepG2)) (UniProt P04114); experiment: co-IP; HepG2 lysate (50 mM Tris-HCl pH 7.5, 250 mM NaCl, 1% NP-40, 1 mM EDTA, 1 mM DTT); ApoB antibody or rabbit IgG at 4 °C overnight, Protein A agarose, immunoblot of MDM2; cells untreated or treated with oleic acid (0.4 mM) or stearic acid (0.4 mM), which reduced the interaction
[2] = biological target: Apolipoprotein B (ApoB), endogenous in HepG2 cells (human (endogenous in HepG2)) (UniProt P04114); experiment: co-IP; HepG2 cells treated with Nutlin-3a (10 × 10^-6 M) before lysis; co-immunoprecipitation of ApoB and MDM2 as for untreated cells
[3] = biological target: Apolipoprotein B (ApoB), endogenous in mouse liver and primary hepatocytes (mouse (endogenous in C57BL/6J liver and primary hepatocytes)) (UniProt E9Q414); experiment: co-IP; C57BL/6J mouse liver lysate (50 mM Tris-HCl pH 7.5, 250 mM NaCl, 1% NP-40, 1 mM EDTA, 1 mM DTT); ApoB antibody or rabbit IgG at 4 °C overnight, Protein A agarose, immunoblot of MDM2
[4] = biological target: Apolipoprotein B (ApoB), endogenous in mouse liver and primary hepatocytes (mouse (endogenous in C57BL/6J liver and primary hepatocytes)) (UniProt E9Q414); experiment: co-IP; mouse primary hepatocyte lysate (50 mM Tris-HCl pH 7.5, 250 mM NaCl, 1% NP-40, 1 mM EDTA, 1 mM DTT); ApoB antibody or rabbit IgG at 4 °C overnight, Protein A agarose, immunoblot of MDM2

- binding (ApoB-3419-4018 (human)): binds
- binding (ApoB-1-624 (human)): binds
Substance: Myc-tagged MDM2 (from UniProt P23804 1-489)

- binding [1]: binds
Substance: murine double minute 2 (MDM2), endogenous in HepG2 cells (from UniProt Q00987 1-491)
- binding [2]: no binding (condition: with Nutlin-3a (10 × 10^-6 M))

- binding [3]: binds
- binding [4]: binds
Substance: murine double minute 2 (MDM2), endogenous in mouse liver and primary hepatocytes (from UniProt P23804 1-489)
